Laboratory results as given in PMC13156314.

Amino acid sequences for entries named in this document (tags omitted).
UniProt P19474: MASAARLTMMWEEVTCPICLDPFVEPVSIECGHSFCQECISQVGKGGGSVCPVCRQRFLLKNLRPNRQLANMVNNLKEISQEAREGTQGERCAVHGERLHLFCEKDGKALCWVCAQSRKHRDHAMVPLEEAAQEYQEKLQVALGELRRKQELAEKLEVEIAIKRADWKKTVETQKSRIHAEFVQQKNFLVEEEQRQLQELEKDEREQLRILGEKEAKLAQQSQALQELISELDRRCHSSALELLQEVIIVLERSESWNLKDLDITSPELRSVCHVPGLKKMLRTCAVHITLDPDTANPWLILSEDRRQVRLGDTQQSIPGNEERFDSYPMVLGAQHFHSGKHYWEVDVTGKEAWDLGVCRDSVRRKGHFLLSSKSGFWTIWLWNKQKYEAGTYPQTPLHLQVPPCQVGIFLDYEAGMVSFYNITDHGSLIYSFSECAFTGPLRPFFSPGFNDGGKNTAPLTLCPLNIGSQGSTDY

T1: TRIM29-Myc (human) (UniProt Q14134)
T1 sequence: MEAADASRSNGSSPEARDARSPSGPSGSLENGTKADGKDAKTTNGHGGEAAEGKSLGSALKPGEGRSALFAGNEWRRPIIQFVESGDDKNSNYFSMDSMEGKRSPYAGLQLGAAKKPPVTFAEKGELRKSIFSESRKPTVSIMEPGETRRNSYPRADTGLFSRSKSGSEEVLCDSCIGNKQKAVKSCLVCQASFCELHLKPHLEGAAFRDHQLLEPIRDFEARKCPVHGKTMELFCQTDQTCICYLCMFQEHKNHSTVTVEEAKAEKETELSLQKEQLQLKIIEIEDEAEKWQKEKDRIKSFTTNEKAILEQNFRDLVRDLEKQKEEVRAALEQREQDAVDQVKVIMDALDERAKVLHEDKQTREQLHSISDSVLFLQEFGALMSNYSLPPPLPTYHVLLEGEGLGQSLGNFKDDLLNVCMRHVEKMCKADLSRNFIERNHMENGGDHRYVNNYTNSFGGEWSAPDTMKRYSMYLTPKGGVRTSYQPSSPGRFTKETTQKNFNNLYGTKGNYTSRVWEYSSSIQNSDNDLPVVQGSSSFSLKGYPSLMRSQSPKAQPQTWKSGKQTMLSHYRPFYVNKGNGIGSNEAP

T2: USP18-Flag (human) (UniProt Q9UMW8)
T2 sequence: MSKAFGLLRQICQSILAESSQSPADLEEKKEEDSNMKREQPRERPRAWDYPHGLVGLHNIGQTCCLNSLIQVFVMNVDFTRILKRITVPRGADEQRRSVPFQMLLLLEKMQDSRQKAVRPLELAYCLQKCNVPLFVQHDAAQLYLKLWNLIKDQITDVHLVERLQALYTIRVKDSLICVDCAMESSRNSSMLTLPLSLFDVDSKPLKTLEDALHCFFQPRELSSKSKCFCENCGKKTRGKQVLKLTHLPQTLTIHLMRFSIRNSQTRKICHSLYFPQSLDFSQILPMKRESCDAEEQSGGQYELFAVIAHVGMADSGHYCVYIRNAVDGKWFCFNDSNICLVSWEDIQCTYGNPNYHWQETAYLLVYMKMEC


Key:
Experiment in all cases: affinity purification with mass spectrometry; immunoprecipitates of USP18-Flag or TRIM29-Myc from transfected SUNE1 cells, SDS-PAGE, silver staining, mass spectrometry
[1] = target: T1, TRIM29-Myc (human)
[2] = target: T2, USP18-Flag (human)
[3] = target: T1, TRIM29-Myc (human); remark: listed apart in the source
[4] = target: T2, USP18-Flag (human); remark: listed apart in the source

| binding [1] | binding [2] | binding [3] | binding [4] | Molecule |
| --- | --- | --- | --- | --- |
| binds | binds |  |  | TRIM21 (endogenous) (from UniProt P19474 1-475) (enzyme) |
|  |  | binds | binds | HERC5 (endogenous) (enzyme, UniProt Q9UII4 1-1024) MERRSRRKSRRNGRSTAGKAAATQPAKSPGAQLWLFPSAAGLHRALLRRVEVTRQLCCSPGRLAVLERGGAGVQVHQLLAGSGGARTPKCIKLGKNMKIHSVDQGAEHMLILSSDGKPFEYDNYSMKHLRFESILQEKKIIQITCGDYHSLALSKGGELFAWGQNLHGQLGVGRKFPSTTTPQIVEHLAGVPLAQISAGEAHSMALSMSGNIYSWGKNECGQLGLGHTESKDDPSLIEGLDNQKVEFVACGGSHSALLTQDGLLFTFGAGKHGQLGHNSTQNELRPCLVAELVGYRVTQIACGRWHTLAYVSDLGKVFSFGSGKDGQLGNGGTRDQLMPLPVKVSSSEELKLESHTSEKELIMIAGGNQSILLWIKKENSYVNLKRTIPTLNEGTVKRWIADVETKRWQSTKREIQEIFSSPACLTGSFLRKRRTTEMMPVYLDLNKARNIFKELTQKDWITNMITTCLKDNLLKRLPFHSPPQEALEIFFLLPECPMMHISNNWESLVVPFAKVVCKMSDQSSLVLEEYWATLQESTFSKLVQMFKTAVICQLDYWDESAEENGNVQALLEMLKKLHRVNQVKCQLPESIFQVDELLHRLNFFVEVCRRYLWKMTVDASENVQCCVIFSHFPFIFNNLSKIKLLHTDTLLKIESKKHKAYLRSAAIEEERESEFALRPTFDLTVRRNHLIEDVLNQLSQFENEDLRKELWVSFSGEIGYDLGGVKKEFFYCLFAEMIQPEYGMFMYPEGASCMWFPVKPKFEKKRYFFFGVLCGLSLFNCNVANLPFPLALFKKLLDQMPSLEDLKELSPDLGKNLQTLLDDEGDNFEEVFYIHFNVHWDRNDTNLIPNGSSITVNQTNKRDYVSKYINYIFNDSVKAVYEEFRRGFYKMCDEDIIKLFHPEELKDVIVGNTDYDWKTFEKNARYEPGYNSSHPTIVMFWKAFHKLTLEEKKKFLVFLTGTDRLQMKDLNNMKITFCCPESWNERDPIRALTCFSVLFLPKYSTMETVEEALQEAINNNRGFG |
|  |  |  | binds | TRIM29 (endogenous) (protein, UniProt Q14134 1-588) MEAADASRSNGSSPEARDARSPSGPSGSLENGTKADGKDAKTTNGHGGEAAEGKSLGSALKPGEGRSALFAGNEWRRPIIQFVESGDDKNSNYFSMDSMEGKRSPYAGLQLGAAKKPPVTFAEKGELRKSIFSESRKPTVSIMEPGETRRNSYPRADTGLFSRSKSGSEEVLCDSCIGNKQKAVKSCLVCQASFCELHLKPHLEGAAFRDHQLLEPIRDFEARKCPVHGKTMELFCQTDQTCICYLCMFQEHKNHSTVTVEEAKAEKETELSLQKEQLQLKIIEIEDEAEKWQKEKDRIKSFTTNEKAILEQNFRDLVRDLEKQKEEVRAALEQREQDAVDQVKVIMDALDERAKVLHEDKQTREQLHSISDSVLFLQEFGALMSNYSLPPPLPTYHVLLEGEGLGQSLGNFKDDLLNVCMRHVEKMCKADLSRNFIERNHMENGGDHRYVNNYTNSFGGEWSAPDTMKRYSMYLTPKGGVRTSYQPSSPGRFTKETTQKNFNNLYGTKGNYTSRVWEYSSSIQNSDNDLPVVQGSSSFSLKGYPSLMRSQSPKAQPQTWKSGKQTMLSHYRPFYVNKGNGIGSNEAP |

Read-outs that look alike come from different tables or passages of the source. These are yes or no findings as the source states them, for the method shown. Binding seen in cells or lysates may run through a third protein. Here binding means that the protein was enriched with, or labelled near, the bait; the list need not be complete. Tags and fused reporters may be left off the sequences shown.
